Measured values reported in patent US20070249013 (published 2007).

Assay: general procedure: Fmoc solid-phase peptide synthesis; Rink-NHFmoc resin (0.6 mmol/g); DIC/HOBt
Conditions: whole synthesis; for crude HPLC purity: λ=288 nm

| Substance | crude yield | crude HPLC purity |
| --- | --- | --- |
| H2N—CO-Phe-Lys-Gly-Orn-Bodipy | Yield=53% | HPLC 86% |
| H2N—CO-Phe-Lys-Gly-Orn-Lissamine | Yield=53% | HPLC 83% |
| H2N—CO-Phe-Lys-Gly-Orn-NHFmoc | Yield=78% | HPLC 97% |
